Measured values published in patent US20060111381A1, “Amidine compounds” (priority 2002, published 2006).
For at least one compound, name, drawing or mass did not settle the structure.

System: ICR mice
Assay: Phenylquinone-induced writhing model in mice (writhes counted in following 5-10 minute period)
Assay type: in vivo
Conditions: at doses of 128, 64, 32, 16, 8 and 4 mg/kg IP
Procedure: Testing on compound KRS-6-48 was carried out under contract by MDS Services—Taiwan Ltd. KRS-6-48 was evaluated for possible analgesic activity in the phenylquinone-induced writhing model in mice (Siegmund et al, 1957). A serial 2-fold dosage variance was used in the test, from 128 mg/kg to 1 mg/kg (8 doses in total). Groups of 3 male or female ICR mice weighing 22±2 g were employed. Variant doses (1, 2, 4, 8, 16, 32, 64 and 128 mg/kg) of test substances were administered intraperitoneally (IP). A vehicle of 2% Tween 80 in 0.9% NaCl was used for the intraperitoneal injection. The control group received vehicle alone. […] A reduction in the number of writhes by 50 percent or more (≧50%) relative to the vehicle-treated group indicated possible analgesic activity.
Testing on compounds KRS-6-41, KRS-6-51, and KRS-6-71 was also carried out under contract by MDS Services—Taiwan Ltd. The study was designed to evaluate the effects of the compounds as analgesics in the phenylquinone-induced writhing assay described in detail in Example 10 (Siegmund et al, 1957).
In each case, a serial 2-fold dosage variance was used in the test, from 128 mg/kg to 1 mg/kg (8 doses in total). Groups of 3 male or female ICR mice weighing 22±2 g were employed. Variant doses (1, 2, 4, 8, 16, 32, 64 and 128 mg/kg) of test substances were administered intraperitoneally (IP). […]

Which “analgesic activity in writhing model (in words)” value does the source give for `CCC(=Nc1ccccc1CC)NCCCN1CC[C@]23c4c5ccc(O)c4O[C@H]2[C@@H](O)C=CC3[C@H]1C5` (stereo partly drawn) [KRS-6-71, (5α,6α)-7,8-didehydro-4,5-epoxy-17-((N-(2-ethylphenyl)propionamidino)-propyl)morphinan, 3,6-diol] here?
Its value is “significant activity”.
